# In PMC2935449:
# No constants are given. Whether binding was seen depends on the method and setting. In cells and extracts the contact can be indirect. Binding can be weak; no strength is given. Sequences can lack the tags named with a protein.
# Biological target: T1, Ubp5-GFP (S. pombe) (UniProt Q09879)
# T1 sequence: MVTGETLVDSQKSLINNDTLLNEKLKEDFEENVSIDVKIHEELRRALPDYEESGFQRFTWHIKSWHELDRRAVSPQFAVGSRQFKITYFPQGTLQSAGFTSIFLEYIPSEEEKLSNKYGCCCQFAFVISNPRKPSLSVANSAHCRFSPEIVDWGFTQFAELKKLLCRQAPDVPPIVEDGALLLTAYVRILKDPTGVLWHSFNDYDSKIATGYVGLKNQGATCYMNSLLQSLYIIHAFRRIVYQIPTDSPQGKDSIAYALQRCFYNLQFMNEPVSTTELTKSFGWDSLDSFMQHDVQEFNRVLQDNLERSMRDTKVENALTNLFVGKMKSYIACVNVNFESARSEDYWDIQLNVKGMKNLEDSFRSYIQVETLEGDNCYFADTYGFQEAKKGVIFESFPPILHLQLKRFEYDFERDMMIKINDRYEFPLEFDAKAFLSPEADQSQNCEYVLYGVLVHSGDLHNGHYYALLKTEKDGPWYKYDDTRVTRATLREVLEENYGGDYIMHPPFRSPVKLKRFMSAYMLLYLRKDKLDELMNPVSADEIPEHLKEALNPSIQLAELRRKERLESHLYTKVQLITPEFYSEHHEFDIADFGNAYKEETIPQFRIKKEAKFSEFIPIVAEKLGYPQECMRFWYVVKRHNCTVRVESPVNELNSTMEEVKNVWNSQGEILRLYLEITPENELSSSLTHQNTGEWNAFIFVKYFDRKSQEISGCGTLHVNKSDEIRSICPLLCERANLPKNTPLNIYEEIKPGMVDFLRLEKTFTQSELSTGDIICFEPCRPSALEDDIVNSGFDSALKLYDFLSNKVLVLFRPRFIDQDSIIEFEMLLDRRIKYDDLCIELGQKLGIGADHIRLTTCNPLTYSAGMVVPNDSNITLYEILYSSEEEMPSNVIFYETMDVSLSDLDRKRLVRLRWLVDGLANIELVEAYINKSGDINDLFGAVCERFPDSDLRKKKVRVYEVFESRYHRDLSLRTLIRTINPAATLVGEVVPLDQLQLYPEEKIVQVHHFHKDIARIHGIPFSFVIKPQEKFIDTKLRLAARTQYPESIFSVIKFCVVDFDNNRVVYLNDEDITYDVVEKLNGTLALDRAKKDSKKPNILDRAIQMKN
# Test: co-IP; native NP-40 lysates of S. pombe strains with tagged proteins; IP with anti-GFP, anti-V5 or anti-FLAG and Protein G Sepharose, or IgG Sepharose; immunoblot; wild-type background, for Ubp9 and Bun62 also bun107-null
substance,measurement,value
Ftp105-V5 (S. pombe),binding,binds
